# Screening data

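TC71 Ewing sarcoma cells exposed to compound for 48 h, with viable-cell ATP measured as CellTiter-Glo luminescence and fitted into a potency value. Each compound was run as a 12-point titration, mostly reaching a top concentration of 45.8 µM. The number is the fitted AC50 for loss of viability; a lower value means a more potent compound. Calls come from curve class and an activity score: score 0 is inactive, 1 to 39 is inconclusive (for example weak, poorly fitted or top-dose-only curves), and 40 to 100 is active.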

Values are in µM. Every entry below has the call inconclusive. Only part of the assay is shown, chiefly results filed as inconclusive. A potency from a partial, single-point or poor curve is only a rough figure. Some entries filed as inconclusive have a full curve. Activity scores are not listed here.

compound | Potency (µM) | curve as filed
O=C(O)C(=O)c1cn(Cc2ccccc2)c2ccc(-c3ccc(OC(F)(F)F)cc3)cc12 | 20.93 | inhibitor, partial curve, poor fit
COc1ccc(-c2oc3cc(OC)ccc3c2C(=O)c2ccc(C#N)cc2)cc1 | 37.22 | inhibitor, single point
CON=C(C(=O)N[C@@H]1C(=O)N2C(C(=O)OCOC(=O)C(C)(C)C)=C(C=Cc3scnc3C)CS[C@H]12)c1csc(N)n1 | 33.17 | inhibitor, single point
CC(C)c1ccc2oc3nc(N)c(C(=O)O)cc3c(=O)c2c1 | 20.93 | inhibitor, single point
O=C1c2c(O)cc(O)cc2O[C@H](c2cc(O)c(O)c(O)c2)[C@H]1O | 37.22 | inhibitor, single point
CNC(=O)N1N=C(c2ccc(N)cc2)c2cc3c(cc2CC1C)OCO3 (configuration not stated) | 4.176 | inhibitor, full curve
N#CC1(c2ccc(NC(=O)c3cccnc3NCc3ccncc3)cc2)CCCC1 | 23.48 | inhibitor, single point
O=c1cc(-c2ccccc2)oc2cc(O)cc(O)c12 | 33.17 | inhibitor, single point
O=C(Oc1ccc([N+](=O)[O-])cc1)N1CCC(C(O)(c2ccc3c(c2)OCO3)c2ccc3c(c2)OCO3)CC1 | 37.22 | inhibitor, single point
CNC(=O)c1ccc(N2C(=S)N(c3ccc(C#N)c(C(F)(F)F)c3)C(=O)C23CCC3)cc1F | 29.57 | inhibitor, single point

For reference, 2 entries once more:

* CC(C)c1ccc2oc3nc(N)c(C(=O)O)cc3c(=O)c2c1 | Potency 20.93 µM (inhibitor, single point)
* O=C(O)C(=O)c1cn(Cc2ccccc2)c2ccc(-c3ccc(OC(F)(F)F)cc3)cc12 | Potency 20.93 µM (inhibitor, partial curve, poor fit)

Source: PubChem BioAssay AID1259253 (NCATS, 2017).